# Results from paper PMC7819943, “Rice protein-binding microarrays: a tool to detect cis-acting elements near promoter regions in rice”.
# Chains of the proteins cited; added tags and fusions are not shown.
# UniProt Q0JBA9, entry or part of it: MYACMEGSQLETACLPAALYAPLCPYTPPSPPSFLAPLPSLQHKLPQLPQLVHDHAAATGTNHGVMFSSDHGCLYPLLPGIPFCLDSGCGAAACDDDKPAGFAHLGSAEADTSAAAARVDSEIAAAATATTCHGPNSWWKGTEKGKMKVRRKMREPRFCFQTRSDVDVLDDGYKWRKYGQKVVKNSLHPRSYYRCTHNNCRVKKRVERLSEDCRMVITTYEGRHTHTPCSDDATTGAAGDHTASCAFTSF
# The list shows a part of the results.
# Target: OsWRKY34 (Oryza sativa, UniProt Q0JBA9 1-250)
# Assay: protein-binding microarray (RPBM); PBS, 2% BSA, 51.3 ng/ul salmon testes DNA, 50 uM zinc acetate, 200 nM TF, 25 C, 1 h; high values mean tight binding
# Conditions: protein: recombinant; tags: N-terminal polyhistidine and DsRed monomer fusion (pET32a); label: CyDye5-dUTP incorporated in the synthesized complementary strand; 3' TTTTT single-stranded linker to array surface; dsDNA, one strand shown
# In short: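 Binding signal is defined as the fluorescence intensity of each feature in arbitrary units, read on an Axon 4000B scanner. Transcription factors with N-terminal polyhistidine and DsRed fusions came from E. coli BL21-CodonPlus and were purified on Ni–NTA. They were incubated at 200 nM for 1 h at 25 °C on a custom Agilent array that had been made double-stranded with Cy5-dUTP, with 50 µM zinc acetate present, and the array was washed.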
row,Sequence,binding signal
1,GACTTACCAAATTTTACGTATCTTTTCGGTCTTTACATTTCGGAGTCACCTAGTGCAG,10600 fluorescence intensity (a.u.)
2,CGCATGCACGTACGTACCCGCCATTGCTGCTGCCAACCCTCGGAGTCACCTAGTGCAG,10700 fluorescence intensity (a.u.)
3,AACTTGTTTCATCTATGCACTGGTACCAACACTCTTTGCACGGAGTCACCTAGTGCAG,9490 fluorescence intensity (a.u.)
4,GATCCACCGCAACCTGCTGCTCACCACGCACGGCAACCTCCGGAGTCACCTAGTGCAG,9780 fluorescence intensity (a.u.)
5,ACTAGTATACGTCATACACACATACACTTGGTTGCCTATTCGGAGTCACCTAGTGCAG,11500 fluorescence intensity (a.u.)
6,TTTTTTTTCTCTTCCGGCAATTCCGTAACAAGTTCATTTTCGGAGTCACCTAGTGCAG,9670 fluorescence intensity (a.u.)
7,AGTCTCTGTTCTCGTCTTCTTGTAGATCTGTCGATCTCTGCGGAGTCACCTAGTGCAG,9680 fluorescence intensity (a.u.)
8,CTGCCTCACTCAATAATTTCAACAACCATTTGCTCGTGAACGGAGTCACCTAGTGCAG,9010 fluorescence intensity (a.u.)
9,CCCCATCCACCGCCGCCGCCACAGTTCACCGCTACCCACGCGGAGTCACCTAGTGCAG,9800 fluorescence intensity (a.u.)
10,ATTCTCAAATACCACTCGGGCCCACATGTCAGCCTTACTCCGGAGTCACCTAGTGCAG,8200 fluorescence intensity (a.u.)
11,TTAATTTGGTTGGATTGGGAGTTTCTTGTTCTCTCTTTAGCGGAGTCACCTAGTGCAG,10700 fluorescence intensity (a.u.)
12,CTGGACTGCAGAATCCTTCTAATCATGTTGGCACAACTTTCGGAGTCACCTAGTGCAG,8300 fluorescence intensity (a.u.)
13,GATTCCCCAGCGCGCGAGCGAGCCCTTCCCGTCCTCGATGCGGAGTCACCTAGTGCAG,8590 fluorescence intensity (a.u.)
14,CTCTAATTTGTTTTTGTTATTAGACTATATTTAATACTTTCGGAGTCACCTAGTGCAG,9030 fluorescence intensity (a.u.)
15,CTCGGGTTTGGTTGGTTGCTGGCACTGCACTACTGCTCGACGGAGTCACCTAGTGCAG,8590 fluorescence intensity (a.u.)
16,AATCCCACAAAACTGCACTGTTAATTTTATCACGTGTCCCCGGAGTCACCTAGTGCAG,8140 fluorescence intensity (a.u.)
17,CCAGCCCAAGTCGGGAAATGACACTTCCTTTTTTGTTTTTCGGAGTCACCTAGTGCAG,8280 fluorescence intensity (a.u.)
18,TTAGCAAAAACATATCCTTTCTTGCCACACTACTAAGCCACGGAGTCACCTAGTGCAG,8160 fluorescence intensity (a.u.)
19,TCCTTGATTTAATGTTGTCACCATTGACCTTATCACACATCGGAGTCACCTAGTGCAG,9330 fluorescence intensity (a.u.)
20,ACATATGATCAGATTAGGATATCGGATGGGTGGGCGCAAACGGAGTCACCTAGTGCAG,11500 fluorescence intensity (a.u.)
21,CCCCTTCGAAATAAGCCACCACCGCCACTTCTCCTTGCCGCGGAGTCACCTAGTGCAG,8720 fluorescence intensity (a.u.)

# 5 entries from above, bar-delimited.
row | Sequence | binding signal
8 | CTGCCTCACTCAATAATTTCAACAACCATTTGCTCGTGAACGGAGTCACCTAGTGCAG | 9010 fluorescence intensity (a.u.)
9 | CCCCATCCACCGCCGCCGCCACAGTTCACCGCTACCCACGCGGAGTCACCTAGTGCAG | 9800 fluorescence intensity (a.u.)
10 | ATTCTCAAATACCACTCGGGCCCACATGTCAGCCTTACTCCGGAGTCACCTAGTGCAG | 8200 fluorescence intensity (a.u.)
11 | TTAATTTGGTTGGATTGGGAGTTTCTTGTTCTCTCTTTAGCGGAGTCACCTAGTGCAG | 10700 fluorescence intensity (a.u.)
12 | CTGGACTGCAGAATCCTTCTAATCATGTTGGCACAACTTTCGGAGTCACCTAGTGCAG | 8300 fluorescence intensity (a.u.)

# (list continues)

row,Sequence,binding signal
1,CTCCACTAATCCTACCAATTAACGAGTCGTACTCAATAATCGGAGTCACCTAGTGCAG,8130 fluorescence intensity (a.u.)
2,AGGTCTAGTATTTCTTTTGGGATTATCTTTTGCAATAGAACGGAGTCACCTAGTGCAG,9390 fluorescence intensity (a.u.)
3,TTTTTCCATCACATCAACCTGTCATATACACACAATTTTTCGGAGTCACCTAGTGCAG,9770 fluorescence intensity (a.u.)
4,GGAAACCTTAGCCACGGAACGCTCATGACCTCACCAAATTCGGAGTCACCTAGTGCAG,8500 fluorescence intensity (a.u.)
5,ACATTTATTCCCTCCCTACTGAATACCAGTACCATATATTCGGAGTCACCTAGTGCAG,9120 fluorescence intensity (a.u.)
6,TTACATTTTTTTTATCCTGGTCATGACTCGTAATTTAATCCGGAGTCACCTAGTGCAG,10300 fluorescence intensity (a.u.)
7,AAGGACGGTCAAATATTTCAGTTGACCATCGGTAAAACATCGGAGTCACCTAGTGCAG,12200 fluorescence intensity (a.u.)
8,AATCTTCACCGTGTTTATTACTCTCTCTGTTTCTACATAGCGGAGTCACCTAGTGCAG,8050 fluorescence intensity (a.u.)
9,CGCGCCACCACCCCTCCCGCATCTTCCACCTCCGCCTCTACGGAGTCACCTAGTGCAG,11100 fluorescence intensity (a.u.)
10,AAACTGTGCACCTAACATTGTGTCTTGCTGACTCCTCTCACGGAGTCACCTAGTGCAG,8580 fluorescence intensity (a.u.)
11,ATCTCAGCCTTAATTTTGCCACAGCTCTGGTAAAAGCTTTCGGAGTCACCTAGTGCAG,8700 fluorescence intensity (a.u.)
12,GCCTATGCCTGCTGAGTTTCTCACTCCCTAGTCGATCTCCCGGAGTCACCTAGTGCAG,8140 fluorescence intensity (a.u.)
13,ACAAAGCCAGCCCAGTACACGGTACCACACACAGCTTAATCGGAGTCACCTAGTGCAG,8440 fluorescence intensity (a.u.)
14,CCATCTCGCGTTCTCGCGCTCGATTCGAATCCCACCGCAACGGAGTCACCTAGTGCAG,9170 fluorescence intensity (a.u.)
15,ATACTCCCTCCGTTTCAAAATGTTTGACACCGTTGACTTTCGGAGTCACCTAGTGCAG,12500 fluorescence intensity (a.u.)
16,GCTTGACAAGCAACCACGTCGATCGACCGTCCGTCGTCACCGGAGTCACCTAGTGCAG,8160 fluorescence intensity (a.u.)
17,CGTATTAGGGTCTAGTTGGTTTTTCTTTGAAATATAATTTCGGAGTCACCTAGTGCAG,8110 fluorescence intensity (a.u.)
18,GTGGGTTTTTTTTTTTGGTTTGTTTCTTCCTCTGGCCATTCGGAGTCACCTAGTGCAG,19800 fluorescence intensity (a.u.)
19,TAACATCTCTATTGGGGCATCTTCATGTGGTGAAATTTTACGGAGTCACCTAGTGCAG,10000 fluorescence intensity (a.u.)
20,CTGGCTACAAATATGTAGTCCGCTGCTCTTCTCTTTTCTCCGGAGTCACCTAGTGCAG,8700 fluorescence intensity (a.u.)
21,GCCTCGCCGCCTTCCACCTCTCTCTCTCTACAAATCTCTCCGGAGTCACCTAGTGCAG,9190 fluorescence intensity (a.u.)

row,Sequence,binding signal
1,GACTCGCCACCCCACCATCACCACCCAACCCAACCCAACCCGGAGTCACCTAGTGCAG,13200 fluorescence intensity (a.u.)
2,TTCTGCTTCTGGTTTTGGGCGATTCGGCGGTTGCTGGACTCGGAGTCACCTAGTGCAG,11400 fluorescence intensity (a.u.)
3,GGTAATTGGAAGCCTATGCACGTGGGCGGGGAGGCGTCGGCGGAGTCACCTAGTGCAG,8330 fluorescence intensity (a.u.)
4,TTAAGTCCTTGTGCTGTCCCTGTGATTTTGGTGCCAAAGACGGAGTCACCTAGTGCAG,9250 fluorescence intensity (a.u.)
5,GGGGAGGGGTTGGATGACCCTAACGGCGACGCGACGGGCGCGGAGTCACCTAGTGCAG,11000 fluorescence intensity (a.u.)
6,CCACCTCCGGTTGCCGCTCCGTCCACTCATGTCGTTCAGCCGGAGTCACCTAGTGCAG,9460 fluorescence intensity (a.u.)
7,ACAGTCGGACTGTGCAATTGGTTTTTTTCGGTCCACATTTCGGAGTCACCTAGTGCAG,9720 fluorescence intensity (a.u.)
8,AAAAACTTAAGTTGTGCCAAGACGCCACCTTTACTCACGCCGGAGTCACCTAGTGCAG,8160 fluorescence intensity (a.u.)
9,CCGGACCCTTGCTCGTCATTCGCTTGCGAACTGAAAACCACGGAGTCACCTAGTGCAG,8930 fluorescence intensity (a.u.)
10,AAAGTTTTGTGTCCATTCTTGAATCACTATCACTTTAGTCCGGAGTCACCTAGTGCAG,9000 fluorescence intensity (a.u.)
11,ACAGCGACCTTTTGCTGCAAAGCTTTGTTGGGTTTGGGCTCGGAGTCACCTAGTGCAG,8470 fluorescence intensity (a.u.)
12,ACTCCACCAGTCCACCCACTCTTTCCTTCCCGCATCTTCCCGGAGTCACCTAGTGCAG,9330 fluorescence intensity (a.u.)
13,CGATCGATGGGGATGTGGGGTGTGTTAGTTCCTTCGTCTTCGGAGTCACCTAGTGCAG,9850 fluorescence intensity (a.u.)
14,TAAACTTCCAACTTTTCCGTCACATCGTTTCAATTTCAACCGGAGTCACCTAGTGCAG,8770 fluorescence intensity (a.u.)
15,GCGAAAAAGCGGTGGTGGTGGTGGTGGTGCGGATTGAGGACGGAGTCACCTAGTGCAG,13100 fluorescence intensity (a.u.)
16,TGTATAATTTGTAATCACAATGGCGGCATATACTTCTATCCGGAGTCACCTAGTGCAG,8160 fluorescence intensity (a.u.)
17,CGATCAGAACGATTCGCTTGCTTCTTTCCCGGGTGTTAGTCGGAGTCACCTAGTGCAG,10500 fluorescence intensity (a.u.)
18,TTCATCCCTCAAGAGGATATCCCCTTGTTTCGTGCATGTTCGGAGTCACCTAGTGCAG,8730 fluorescence intensity (a.u.)
19,CATTTCTCAGCTTCTGCTCTCGTTTATAGTATGTTTTTTTCGGAGTCACCTAGTGCAG,11200 fluorescence intensity (a.u.)
20,TTCTCAAGAGCCCATATGTCATCAACTGGTTTCAATTTAACGGAGTCACCTAGTGCAG,8040 fluorescence intensity (a.u.)
21,CGTAAATTGCCATGTCTGTTCATCTTGCTTATCAGAACGGCGGAGTCACCTAGTGCAG,9390 fluorescence intensity (a.u.)

row,Sequence,binding signal
1,CCCCATATCTCATCTTCCATCACCAACAATCTCTCTAACCCGGAGTCACCTAGTGCAG,9580 fluorescence intensity (a.u.)
2,ACTACTTTTTTTGGGTTGATGTGCTTGAATTTGAAGAGAACGGAGTCACCTAGTGCAG,11700 fluorescence intensity (a.u.)
3,CCGAGCCGTAGGCAGCCCCATGTACTTCCATGCTATTTCTCGGAGTCACCTAGTGCAG,9080 fluorescence intensity (a.u.)
4,GCTCGTTGCCCTACTCTTTGCTCGGCTCGGGTGGGTCCCACGGAGTCACCTAGTGCAG,9940 fluorescence intensity (a.u.)
5,TTTAGTATATAAAAGATTATAGGGGAGGTTCATTACTTTCCGGAGTCACCTAGTGCAG,8410 fluorescence intensity (a.u.)
6,CCTCCGCTTCTTCGCCGCCGCCGCCATCCCGCCCTAGCGACGGAGTCACCTAGTGCAG,9070 fluorescence intensity (a.u.)
7,ATCTCTCTCATCTCCTCTCTCTCTCTCTCTCTCTTGTTTCCGGAGTCACCTAGTGCAG,9260 fluorescence intensity (a.u.)
8,GGATACATGTCTTCCCGTTTCGTAACCCATATTTTTCTAACGGAGTCACCTAGTGCAG,10800 fluorescence intensity (a.u.)
9,AGCCACCAACTCCGTCGTCGTGCCCTACCTATGTGATAGACGGAGTCACCTAGTGCAG,10000 fluorescence intensity (a.u.)
10,GTTGCTTGTGTTGTATATTATATATTTCTTTTACCATTCTCGGAGTCACCTAGTGCAG,14700 fluorescence intensity (a.u.)
11,GATCCAAATCCTGACTGCTCTCTTATACTCCATATTGCTCCGGAGTCACCTAGTGCAG,9390 fluorescence intensity (a.u.)
12,CCTAGCTAATTTCATCTCCCACGCCGAACGGAAACACATCCGGAGTCACCTAGTGCAG,8300 fluorescence intensity (a.u.)
13,AATATGTAGATTTATCTCGGTTTCTATTACCACATATTTTCGGAGTCACCTAGTGCAG,10800 fluorescence intensity (a.u.)
14,CAGTGTTCAGTGCCACCACCATCTTCTTCTTCTTCTTCTTCGGAGTCACCTAGTGCAG,9740 fluorescence intensity (a.u.)
15,TTAGTATAGCTGTATTCTTCCCAACTTCCTATTTTCCTCTCGGAGTCACCTAGTGCAG,8540 fluorescence intensity (a.u.)
16,TCGCTGCTCTGCCCTTTTCCCTTTTTTTTTCTTTCTTCATCGGAGTCACCTAGTGCAG,10200 fluorescence intensity (a.u.)
17,GGGAGAGGATAATGCTTTGATCAATCGGCTGCACTTAATTCGGAGTCACCTAGTGCAG,8190 fluorescence intensity (a.u.)
18,TTTGTTCTGTATTGGGCCTTTCCAACCTCGATCCCAACAACGGAGTCACCTAGTGCAG,8192 fluorescence intensity (a.u.)
19,CGTTTGTTGGGTGCGGCGGGCGGGGAGGAGCTCGTGAATGCGGAGTCACCTAGTGCAG,19600 fluorescence intensity (a.u.)
20,ATAGCACCTCGAAACACCAAACTATTGCTATTAACATTTTCGGAGTCACCTAGTGCAG,9650 fluorescence intensity (a.u.)
21,CCTCTCTCTCTCCAAATCTGTGGACATTTCACGCGCGCTCCGGAGTCACCTAGTGCAG,10400 fluorescence intensity (a.u.)
